Measurements taken from PubChem BioAssay AID504834 (National Center for Advancing Translational Sciences (NCATS), 2011).
In all, about 320,000 compounds went through this assay and about 22,000 (6.9%) were called active. Inconclusive results, whose numbers are uncertain, are shown with a selection of clear calls. Calls follow the shape of the dose curve; as a rule, active = well fitted inhibition curve with a large enough effect; inconclusive = small, poorly fitted or top-dose-only effect, or another doubt; inactive = no such curve, though single readings can be large or run the other way. A potency beside an inconclusive call is a rough fit, not a confirmed value.

Assay: Primary qHTS for delayed death inhibitors of the malarial parasite plastid, 96 hour incubation
Settings: P. falciparum luciferase reporter growth; series mostly up to 28.7 µM; activity change, negative = inhibition: at the top concentration
Summary of the method: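 Cell-based qHTS: luciferase-tagged P. falciparum in erythrocytes (2% hematocrit, 0.05% parasitemia final) incubated with compounds for 96 hours, 37 C, 5% CO2; luciferase detection reagent then added and luminescence measured.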
% is scaled to controls: 0 for no effect and ±100 for the full control effect; potency is read from the fitted curve at half-maximal effect.

Compound | activity change, negative = inhibition | Potency
COc1cc(CN2CCC(CO)(CCOc3ccccc3)CC2)cc(OC)c1OC | inactive: 8.86% | –
CC(C)Cc1nc2oc3c(NCCCN4CCOCC4)ncnc3c2c2c1CCC2 | – | inconclusive: 0.233 µM [inhibitor, full curve, poor fit]
N#CCC(=O)Nc1ccc(C(=O)OC(C(=O)Nc2cc(C(F)(F)F)ccc2Cl)c2ccccc2)cc1 (stereo not drawn) | – | inconclusive: 11.7 µM [inhibitor, single point]
CC(C)[N+](C)(CCOC(=O)C1c2ccccc2Oc2ccccc21)C(C)C | – | active: 0.0147 µM
O=C(CSc1cccc[n+]1[O-])c1cc2ccccc2o1 | – | active: 4.15 µM
CC(=O)N1CCN(C(=O)Nc2cccc(C(F)(F)F)c2)CC1 | inactive: -7.32% | –
O=C(Nc1ccc(S(=O)(=O)N2CCCC2)cc1)c1ccc(Br)o1 | inactive: 25.1% | –
CN(C)CCCNCCCNC(=O)/C(=N\O)c1ccccn1 | inactive: -2.23% | –
CCCCNC(=O)CNC(=S)N(Cc1cc(OC)c(OC)c(OC)c1)C1CCCC1 | – | inconclusive: 18.5 µM [inhibitor, single point]
Cc1ccccc1NS(=O)(=O)c1cccc(-c2nnc(-c3ccccc3)o2)c1 | – | inconclusive: 18.5 µM [inhibitor, single point]
CCOC(=O)c1c(-c2ccc(F)cc2)csc1NC(=O)CN1C(=O)NC2(CCCCC2C)C1=O (stereo not drawn) | – | active: 9.28 µM
Cc1cccc(Nc2c3c(nc4ccccc24)CCC3)c1 | – | inconclusive: 11.7 µM [inhibitor, single point]
COc1ccc(NC(=O)C2CC(=O)N(Cc3ccc(C)cc3)C2)cc1S(=O)(=O)N1CCCCC1 (stereo not drawn) | – | inconclusive: 18.5 µM [inhibitor, single point]
CCCCn1c(CNC(=O)c2cccs2)nc2ccccc21 | – | active: 2.08 µM
Cn1nnnc1SCC(=O)Nc1ccccc1C(=O)NC1CC1 | inactive: 11.2% | –
O=C(CCc1nnc(C2CCCCC2)o1)N1CCN(C2CCCCC2)CC1 | inactive: -15% | –
COc1cc(C(=O)NCC2CCCO2)ccc1OCc1ccc(Cl)cc1Cl (stereo not drawn) | – | active: 11.7 µM
C/C(=N/NC(=O)c1ccc2c(c1)OCO2)c1ccc(NC(=O)C(F)(F)F)cc1 | inactive: 89.5% | –
CC1CCN(CC(=O)Nc2nccs2)CC1 | inactive: 0% | –
CC(C)(C)c1ccc(OCC(=O)Nc2ccc(C(=O)Nc3ccccc3C(=O)O)cc2)cc1 | inactive: -16.9% | –
CC(=O)/C=C(\C)Nc1ccccc1O | – | inconclusive: 11.7 µM [inhibitor, single point]
CCOC(=O)C1CCN(C(=O)C(C)c2ccc([N+](=O)[O-])cc2)CC1 (stereo not drawn) | inactive: -11.8% [at 5.75 µM] | –
Cc1ccccc1-n1nc(C)c(N=O)c1N | inactive: 17.9% | –
CCN1C(=O)C(CC(=O)Nc2ccc(OC)cc2)N(CCc2ccccc2)C1=S (stereo not drawn) | – | inconclusive: 0.415 µM [inhibitor, partial curve, poor fit]
Cc1ccc[n+](C(C)C(=O)c2ccc(-c3ccccc3)cc2)c1 (stereo not drawn) | – | inconclusive: 10.4 µM [inhibitor, partial curve, poor fit]

19 of these compounds, set out differently:
Compound,"activity change, negative = inhibition",Potency
CC(C)Cc1nc2oc3c(NCCCN4CCOCC4)ncnc3c2c2c1CCC2,–,"inconclusive: 0.233 µM [inhibitor, full curve, poor fit]"
CC(C)[N+](C)(CCOC(=O)C1c2ccccc2Oc2ccccc21)C(C)C,–,active: 0.0147 µM
O=C(CSc1cccc[n+]1[O-])c1cc2ccccc2o1,–,active: 4.15 µM
CC(=O)N1CCN(C(=O)Nc2cccc(C(F)(F)F)c2)CC1,inactive: -7.32%,–
O=C(Nc1ccc(S(=O)(=O)N2CCCC2)cc1)c1ccc(Br)o1,inactive: 25.1%,–
CN(C)CCCNCCCNC(=O)/C(=N\O)c1ccccn1,inactive: -2.23%,–
CCCCNC(=O)CNC(=S)N(Cc1cc(OC)c(OC)c(OC)c1)C1CCCC1,–,"inconclusive: 18.5 µM [inhibitor, single point]"
Cc1ccccc1NS(=O)(=O)c1cccc(-c2nnc(-c3ccccc3)o2)c1,–,"inconclusive: 18.5 µM [inhibitor, single point]"
CCOC(=O)c1c(-c2ccc(F)cc2)csc1NC(=O)CN1C(=O)NC2(CCCCC2C)C1=O (stereo not drawn),–,active: 9.28 µM
Cc1cccc(Nc2c3c(nc4ccccc24)CCC3)c1,–,"inconclusive: 11.7 µM [inhibitor, single point]"
COc1ccc(NC(=O)C2CC(=O)N(Cc3ccc(C)cc3)C2)cc1S(=O)(=O)N1CCCCC1 (stereo not drawn),–,"inconclusive: 18.5 µM [inhibitor, single point]"
CCCCn1c(CNC(=O)c2cccs2)nc2ccccc21,–,active: 2.08 µM
Cn1nnnc1SCC(=O)Nc1ccccc1C(=O)NC1CC1,inactive: 11.2%,–
O=C(CCc1nnc(C2CCCCC2)o1)N1CCN(C2CCCCC2)CC1,inactive: -15%,–
CC1CCN(CC(=O)Nc2nccs2)CC1,inactive: 0%,–
CC(C)(C)c1ccc(OCC(=O)Nc2ccc(C(=O)Nc3ccccc3C(=O)O)cc2)cc1,inactive: -16.9%,–
CC(=O)/C=C(\C)Nc1ccccc1O,–,"inconclusive: 11.7 µM [inhibitor, single point]"
Cc1ccccc1-n1nc(C)c(N=O)c1N,inactive: 17.9%,–
Cc1ccc[n+](C(C)C(=O)c2ccc(-c3ccccc3)cc2)c1 (stereo not drawn),–,"inconclusive: 10.4 µM [inhibitor, partial curve, poor fit]"

Next results:

Compound | activity change, negative = inhibition | Potency
Oc1ccc(-c2nccc(-c3cccs3)n2)cc1 | inactive: 98% | –
CC(=C\c1ccccc1)/C=C1/SC(=S)N(CCCC(=O)O)C1=O | – | inconclusive: 18.5 µM [inhibitor, single point]
CCOc1ccc(CCNS(=O)(=O)c2ccc3c(c2)NC(=O)CC(=O)N3)cc1OCC | – | inconclusive: 10.4 µM [inhibitor, single point]
CCCN(CCC)CCCNC(=O)c1cc2c(=O)n(CC)c3ccccc3c2s1 | – | inconclusive: 18.5 µM [inhibitor, single point]
COC(OC)c1ccc(C#N)c(SCc2ccccc2)n1 | – | inconclusive: 0.928 µM [inhibitor, full curve, poor fit]
Cc1ccc(S(=O)(=O)Nc2nc3ccc(S(=O)(=O)N4CCCC4)cc3s2)cc1 | inactive: -48.8% | –
CN1C(=O)/C(=C/c2ccc(C(=O)Nc3ccc(O)cc3C(=O)O)cc2)SC1=S | – | inconclusive: 11.7 µM [inhibitor, partial curve, poor fit]
O=C(O)/C=C/C(=O)N1CCN(C(=O)/C=C/C(=O)O)CC1 | – | inconclusive: 11.7 µM [inhibitor, single point]
CCn1c2ccccc2c2nnc(SCC(=O)NCc3cccs3)nc21 | – | inconclusive: 8.28 µM [inhibitor, single point]
COc1ccc(C2NC(=S)N(c3ccccc3)C(C)=C2C(=O)Nc2ccccc2)cc1 (stereo not drawn) | – | inconclusive: 16.5 µM [inhibitor, single point]
COc1ccc(NC(=O)N2CCc3ccccc3C2)cc1OC | – | inconclusive: 11.7 µM [inhibitor, partial curve, poor fit]
C(=C\c1nc2ccccc2[nH]1)/c1ccccc1 | – | inconclusive: 18.5 µM [inhibitor, single point]
O=C(Cc1ccc(-n2c(=O)c3ccccc3n(CC(=O)Nc3ccc(F)cc3F)c2=O)cc1)NCc1ccco1 | – | inconclusive: 18.5 µM [inhibitor, single point]
Cc1cc(N/N=C/c2ccc(O)cc2O)nc(-n2nc(C)cc2C)n1 | – | inconclusive: 16.5 µM [inhibitor, partial curve, poor fit]
Cn1c2ccccc2c2cnn(CC(=O)O)c(=O)c21 | inactive: -7.98% | –
CCOC(=O)N1CCN(C(=O)c2ccc3nc(N4CCC(C)CC4)sc3c2)CC1 | inactive: 163% | –
CCOc1ccc(S(=O)(=O)NCCC(=O)Nc2cccc(C(=O)OC)c2)cc1 | inactive: 36.1% | –
NC(N)=NC1=NC(=O)/C(=C/c2ccccc2-n2cccn2)S1 | inactive: -9.6% | –
CCC(=O)NCc1ccc2[nH]c(C)cc2c1 | – | inconclusive: 4.15 µM [inhibitor, single point]
Nc1ccccc1C#CC(=O)c1ccccc1 | inactive: 2.55% | –
Cc1ccccc1N(CC(=O)NC(C)(C)C)C(=O)CCC(=O)Nc1nccs1 | – | inconclusive: 18.5 µM [inhibitor, single point]
CC(=NCCc1ccccc1)c1c(O)n(C)c(=O)n(C)c1=O | inactive: -21.6% | –
Cc1ccc(CS(=O)(=O)c2ccc(C(=O)N3CCCCC3)cc2[N+](=O)[O-])cc1 | – | inconclusive: 10.4 µM [inhibitor, single point]
C=CCNC(=O)N1CCC(n2nccc2NC(=O)CCCc2ccccc2)CC1 | – | inconclusive: 18.5 µM [inhibitor, single point]
COc1ccc(Cn2c(=S)[nH]c3cc(OC)c(OC)cc3c2=O)cc1 | – | inconclusive: 0.104 µM [inhibitor, full curve, poor fit]

Reprinted from the results shown, two compounds:
Compound | activity change, negative = inhibition | Potency
CCOc1ccc(S(=O)(=O)NCCC(=O)Nc2cccc(C(=O)OC)c2)cc1 | inactive: 36.1% | –
NC(N)=NC1=NC(=O)/C(=C/c2ccccc2-n2cccn2)S1 | inactive: -9.6% | –

The list goes on.

Compound | activity change, negative = inhibition | Potency
Cc1ccc(N2CC(C(=O)N/N=C/c3cccc([N+](=O)[O-])c3)CC2=O)cc1 (stereo not drawn) | – | inconclusive: 18.5 µM [inhibitor, partial curve, poor fit]
Cc1ccc(C(=O)C2CCN(CC(=O)N3CCN(c4ccc(F)cc4)CC3)CC2)cc1 | – | inconclusive: 18.5 µM [inhibitor, single point]
O=C(CNc1ccc2c(c1)OCO2)N/N=C\c1cn(Cc2ccc(F)cc2)c2ccccc12 | – | inconclusive: 2.33 µM [inhibitor, partial curve, poor fit]
COc1ccc(C(=O)N2CCC3(CC2)NCCc2[nH]cnc23)cc1OC | inactive: 42.8% | –
Cc1cccc(NC(=O)c2cc(S(=O)(=O)N3CCCCC3)ccc2Cl)n1 | – | inconclusive: 13.1 µM [inhibitor, single point]
CC(C)OC(=O)CSc1nnc(-c2ccc(C(C)(C)C)cc2)n1N | – | inconclusive: 18.5 µM [inhibitor, single point]
CCNc1nc(C)nc2c1oc1ccccc12 | – | active: 0.657 µM
FC(F)(F)c1nnc2sc(-c3ccco3)nn12 | – | inconclusive: 5.22 µM [inhibitor, partial curve]
CCc1ccc(N=CC23c4ccccc4C(c4ccccc42)C2C(=O)N(c4ccc(OC)cc4)C(=O)C23)cc1 (stereo not drawn) | – | inconclusive: 8.28 µM [inhibitor, partial curve]
CS/C(=N\S(=O)(=O)c1cccs1)NC(=O)CSc1nc2ccccc2s1 | – | active: 6.57 µM
CC1CCCC(NC(=O)Cn2cc(C(F)(F)F)cc(Cl)c2=O)C1C (stereo not drawn) | – | inconclusive: 11.7 µM [inhibitor, single point]
O=C(NCc1ccncc1)C1CCC(=O)N(CCc2ccc(Cl)cc2)C1 (stereo not drawn) | – | active: 9.28 µM
c1ccc(C2(CN3CCNC[C@H]3Cc3cccc4ccccc34)CC2)cc1 | – | inconclusive: 1.47 µM [inhibitor, full curve]
O=C(Cn1nnc2ccccc21)NNC(=S)NC1CCCCC1 | inactive: 5.89% | –
Cc1cnnn1-c1ccc(C(=O)CCl)cc1 | inactive: 0% | –
CCOc1ccc(NC(=O)c2nnn(CC(=O)Nc3ccccc3OCC)c2N)cc1 | inactive: 187% | –
Cc1cccc(CCNC(=O)Cn2ncc3c([nH]c4ccccc43)c2=O)c1 | – | inconclusive: 7.38 µM [inhibitor, partial curve]
Cc1ncc2n1-c1ccc(Cl)cc1C(c1ccccc1F)=NC2 | – | inconclusive: 12 µM [inhibitor, partial curve, poor fit]
C=CCOc1ccc(/C=N/NC(=O)C(C)Sc2ccccn2)cc1OC (stereo not drawn) | inactive: 25.1% | –
CCOc1ccc(OCC)c(NC(=O)c2nnn(CC(=O)Nc3cc(C)cc(C)c3)c2N)c1 | – | inconclusive: 10.4 µM [inhibitor, partial curve, poor fit]
Cc1ccccc1NC(=O)Cc1nnc(SCC(=O)Nc2ccccc2)n1C | – | inconclusive: 18.5 µM [inhibitor, single point]
CCOCCCNC(=O)c1ccc2c(c1)ncn2-c1ccc(C)cc1C | – | inconclusive: 7.38 µM [inhibitor, partial curve, poor fit]
CCCc1cc(=O)[nH]c(SCC(=O)NCCCC(=O)OCC)n1 | – | inconclusive: 0.0033 µM [inhibitor, full curve, poor fit]
